Laboratory results published in paper PMC10669615.
No constants are given. Whether binding was seen depends on the method and setting. In cells and extracts the contact can be indirect. Some entries that bind do so weakly or less than the wild type. Tags and fused reporters may be left off the sequences shown.

The chains behind the UniProt entries cited, without tags or fusion partners.
UniProt P00520: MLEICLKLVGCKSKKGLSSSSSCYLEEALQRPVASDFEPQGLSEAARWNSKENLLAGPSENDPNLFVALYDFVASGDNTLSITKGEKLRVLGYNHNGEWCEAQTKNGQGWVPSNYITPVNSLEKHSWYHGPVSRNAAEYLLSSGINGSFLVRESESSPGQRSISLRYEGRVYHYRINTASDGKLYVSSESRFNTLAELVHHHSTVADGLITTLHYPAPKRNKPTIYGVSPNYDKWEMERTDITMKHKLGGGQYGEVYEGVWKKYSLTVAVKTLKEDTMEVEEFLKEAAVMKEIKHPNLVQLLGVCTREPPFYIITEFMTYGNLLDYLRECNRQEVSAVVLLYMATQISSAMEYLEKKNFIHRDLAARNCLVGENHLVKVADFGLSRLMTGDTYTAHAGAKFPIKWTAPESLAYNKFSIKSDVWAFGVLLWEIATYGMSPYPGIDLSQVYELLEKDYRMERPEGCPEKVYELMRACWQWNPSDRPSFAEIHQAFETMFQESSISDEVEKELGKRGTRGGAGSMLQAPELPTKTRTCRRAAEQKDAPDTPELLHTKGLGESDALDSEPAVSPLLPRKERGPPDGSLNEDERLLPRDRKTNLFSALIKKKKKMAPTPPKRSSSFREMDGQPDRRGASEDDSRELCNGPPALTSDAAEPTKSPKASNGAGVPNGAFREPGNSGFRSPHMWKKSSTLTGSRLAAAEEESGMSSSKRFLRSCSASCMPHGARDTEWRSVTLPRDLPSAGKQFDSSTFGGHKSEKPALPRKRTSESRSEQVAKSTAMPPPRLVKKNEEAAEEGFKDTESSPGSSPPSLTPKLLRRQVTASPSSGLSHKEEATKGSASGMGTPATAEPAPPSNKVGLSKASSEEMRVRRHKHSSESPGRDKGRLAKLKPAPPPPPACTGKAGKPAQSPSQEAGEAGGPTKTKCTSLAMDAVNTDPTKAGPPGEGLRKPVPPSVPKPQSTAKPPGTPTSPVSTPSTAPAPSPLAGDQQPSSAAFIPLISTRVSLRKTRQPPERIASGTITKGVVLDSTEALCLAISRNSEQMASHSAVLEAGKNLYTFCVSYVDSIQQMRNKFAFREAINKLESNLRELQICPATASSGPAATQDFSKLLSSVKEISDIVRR

T1: FLAG-tagged WT MFN2 (UniProt Q80U63)
T1 sequence: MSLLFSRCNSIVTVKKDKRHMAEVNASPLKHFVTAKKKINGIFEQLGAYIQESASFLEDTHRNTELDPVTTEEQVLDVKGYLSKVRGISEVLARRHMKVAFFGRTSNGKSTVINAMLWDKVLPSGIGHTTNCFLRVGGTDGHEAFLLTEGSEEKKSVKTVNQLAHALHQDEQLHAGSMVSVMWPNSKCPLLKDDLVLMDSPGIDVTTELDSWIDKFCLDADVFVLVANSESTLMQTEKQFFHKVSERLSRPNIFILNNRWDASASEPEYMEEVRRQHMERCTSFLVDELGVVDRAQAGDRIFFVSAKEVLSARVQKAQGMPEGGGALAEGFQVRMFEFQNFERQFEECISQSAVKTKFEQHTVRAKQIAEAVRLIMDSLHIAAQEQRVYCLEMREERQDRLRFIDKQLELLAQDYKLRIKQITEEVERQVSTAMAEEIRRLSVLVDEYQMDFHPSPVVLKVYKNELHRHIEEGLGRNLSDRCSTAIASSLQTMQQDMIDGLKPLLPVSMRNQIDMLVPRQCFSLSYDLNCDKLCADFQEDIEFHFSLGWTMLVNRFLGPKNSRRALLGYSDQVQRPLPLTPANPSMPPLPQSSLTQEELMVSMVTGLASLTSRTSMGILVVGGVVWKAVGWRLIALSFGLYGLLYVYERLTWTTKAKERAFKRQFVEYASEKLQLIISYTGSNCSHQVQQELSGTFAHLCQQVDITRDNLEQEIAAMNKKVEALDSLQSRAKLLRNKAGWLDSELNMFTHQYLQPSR

T2: mitofusin 2 (endogenous) (mouse (endogenous in MEF)) (UniProt Q80U63)
T2 sequence: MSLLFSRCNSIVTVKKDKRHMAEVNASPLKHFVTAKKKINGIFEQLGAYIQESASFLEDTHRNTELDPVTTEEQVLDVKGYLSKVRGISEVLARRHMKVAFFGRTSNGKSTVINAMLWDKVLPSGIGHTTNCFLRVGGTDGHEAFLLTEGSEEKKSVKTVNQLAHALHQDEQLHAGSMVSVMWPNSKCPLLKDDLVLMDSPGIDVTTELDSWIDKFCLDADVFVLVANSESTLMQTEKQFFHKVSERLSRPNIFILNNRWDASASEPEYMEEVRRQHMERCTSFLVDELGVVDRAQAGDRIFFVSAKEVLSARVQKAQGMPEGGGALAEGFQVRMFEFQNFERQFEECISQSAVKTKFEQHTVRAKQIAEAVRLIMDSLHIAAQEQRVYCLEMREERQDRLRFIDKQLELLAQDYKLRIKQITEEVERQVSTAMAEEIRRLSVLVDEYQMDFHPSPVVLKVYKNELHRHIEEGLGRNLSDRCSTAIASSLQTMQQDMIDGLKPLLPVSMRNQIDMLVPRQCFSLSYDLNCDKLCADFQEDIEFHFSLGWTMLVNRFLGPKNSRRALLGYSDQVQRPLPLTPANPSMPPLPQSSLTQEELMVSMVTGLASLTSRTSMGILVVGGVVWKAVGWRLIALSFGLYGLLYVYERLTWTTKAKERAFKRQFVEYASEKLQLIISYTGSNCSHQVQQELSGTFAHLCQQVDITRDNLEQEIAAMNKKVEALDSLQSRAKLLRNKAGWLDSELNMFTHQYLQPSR


Assays:
FLAG-tagged WT MFN2 = biological target: T1, FLAG-tagged WT MFN2; assay: co-IP; MFN1/2 DKO MEF cells stably expressing FLAG-MFN2, treated with tunicamycin with or without imatinib; non-denaturing lysis buffer; immunoprecipitation with anti-FLAG agarose beads; Western blot for endogenous c-Abl
[1] = biological target: T2, mitofusin 2 (endogenous) (mouse (endogenous in MEF)); assay: co-IP; endogenous proteins from MEF cells treated with tunicamycin with or without imatinib; non-denaturing lysis buffer (20 mM Tris, 137 mM NaCl, 1 mM EDTA, 1% NP-40); immunoprecipitation with anti-c-Abl or with anti-MFN2, complexes isolated with protein G Sepharose; Western blot for the other protein
[2] = biological target: c-Abl tyrosine kinase (endogenous) (mouse (endogenous in MEF)) (UniProt P00520); assay: as above

binding (FLAG-tagged WT MFN2)	binding [1]	binding [2]	Molecule
binds	binds		c-Abl tyrosine kinase (endogenous) (from UniProt P00520 1-1123) (enzyme)
		binds	mitofusin 2 (endogenous) (protein, UniProt Q80U63 1-757) MSLLFSRCNSIVTVKKDKRHMAEVNASPLKHFVTAKKKINGIFEQLGAYIQESASFLEDTHRNTELDPVTTEEQVLDVKGYLSKVRGISEVLARRHMKVAFFGRTSNGKSTVINAMLWDKVLPSGIGHTTNCFLRVGGTDGHEAFLLTEGSEEKKSVKTVNQLAHALHQDEQLHAGSMVSVMWPNSKCPLLKDDLVLMDSPGIDVTTELDSWIDKFCLDADVFVLVANSESTLMQTEKQFFHKVSERLSRPNIFILNNRWDASASEPEYMEEVRRQHMERCTSFLVDELGVVDRAQAGDRIFFVSAKEVLSARVQKAQGMPEGGGALAEGFQVRMFEFQNFERQFEECISQSAVKTKFEQHTVRAKQIAEAVRLIMDSLHIAAQEQRVYCLEMREERQDRLRFIDKQLELLAQDYKLRIKQITEEVERQVSTAMAEEIRRLSVLVDEYQMDFHPSPVVLKVYKNELHRHIEEGLGRNLSDRCSTAIASSLQTMQQDMIDGLKPLLPVSMRNQIDMLVPRQCFSLSYDLNCDKLCADFQEDIEFHFSLGWTMLVNRFLGPKNSRRALLGYSDQVQRPLPLTPANPSMPPLPQSSLTQEELMVSMVTGLASLTSRTSMGILVVGGVVWKAVGWRLIALSFGLYGLLYVYERLTWTTKAKERAFKRQFVEYASEKLQLIISYTGSNCSHQVQQELSGTFAHLCQQVDITRDNLEQEIAAMNKKVEALDSLQSRAKLLRNKAGWLDSELNMFTHQYLQPSR
